The text below walks through data of the supplement of paper PMC12819154, “High-throughput peptide-centric local stability assay extends protein–ligand identification to membrane proteins, tissues and bacteria” (Nature Structural & Molecular Biology, 2025).

Chains of the proteins cited; added tags and fusions are not shown. Lines headed by an entry give the natural chain unless they say otherwise; changes in a name come on top.
UniProt O15211: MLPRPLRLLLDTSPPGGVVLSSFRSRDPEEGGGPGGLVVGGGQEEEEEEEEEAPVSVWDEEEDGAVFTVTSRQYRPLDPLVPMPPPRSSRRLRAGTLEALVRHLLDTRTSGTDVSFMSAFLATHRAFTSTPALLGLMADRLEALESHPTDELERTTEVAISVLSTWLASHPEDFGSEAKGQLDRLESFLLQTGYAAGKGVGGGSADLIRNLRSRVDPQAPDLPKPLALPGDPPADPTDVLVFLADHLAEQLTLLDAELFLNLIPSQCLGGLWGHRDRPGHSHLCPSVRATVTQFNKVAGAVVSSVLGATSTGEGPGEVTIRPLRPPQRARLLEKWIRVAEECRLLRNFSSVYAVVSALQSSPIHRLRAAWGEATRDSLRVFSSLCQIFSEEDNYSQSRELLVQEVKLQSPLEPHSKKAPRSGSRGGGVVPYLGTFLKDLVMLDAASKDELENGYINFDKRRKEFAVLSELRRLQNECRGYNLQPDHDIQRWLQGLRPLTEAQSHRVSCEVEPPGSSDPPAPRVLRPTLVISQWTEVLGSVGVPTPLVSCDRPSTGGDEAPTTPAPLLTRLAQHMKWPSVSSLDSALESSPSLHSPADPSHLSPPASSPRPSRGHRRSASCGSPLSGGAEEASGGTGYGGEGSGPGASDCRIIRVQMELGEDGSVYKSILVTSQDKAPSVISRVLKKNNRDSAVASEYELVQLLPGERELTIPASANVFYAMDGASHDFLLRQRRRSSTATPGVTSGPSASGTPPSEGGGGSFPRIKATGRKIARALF
UniProt O15116: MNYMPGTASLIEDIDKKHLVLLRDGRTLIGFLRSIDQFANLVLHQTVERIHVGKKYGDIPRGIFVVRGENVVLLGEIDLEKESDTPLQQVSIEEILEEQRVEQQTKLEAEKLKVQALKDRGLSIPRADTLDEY
UniProt O00287: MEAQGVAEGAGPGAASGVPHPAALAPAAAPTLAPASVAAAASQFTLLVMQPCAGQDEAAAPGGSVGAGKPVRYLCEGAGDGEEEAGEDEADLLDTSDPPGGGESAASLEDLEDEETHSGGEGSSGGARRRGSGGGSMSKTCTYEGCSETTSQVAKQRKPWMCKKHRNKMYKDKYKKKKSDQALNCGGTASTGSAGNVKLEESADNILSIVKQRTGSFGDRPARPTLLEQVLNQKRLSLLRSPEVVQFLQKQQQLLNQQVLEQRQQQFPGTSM
UniProt O00330, whole entry: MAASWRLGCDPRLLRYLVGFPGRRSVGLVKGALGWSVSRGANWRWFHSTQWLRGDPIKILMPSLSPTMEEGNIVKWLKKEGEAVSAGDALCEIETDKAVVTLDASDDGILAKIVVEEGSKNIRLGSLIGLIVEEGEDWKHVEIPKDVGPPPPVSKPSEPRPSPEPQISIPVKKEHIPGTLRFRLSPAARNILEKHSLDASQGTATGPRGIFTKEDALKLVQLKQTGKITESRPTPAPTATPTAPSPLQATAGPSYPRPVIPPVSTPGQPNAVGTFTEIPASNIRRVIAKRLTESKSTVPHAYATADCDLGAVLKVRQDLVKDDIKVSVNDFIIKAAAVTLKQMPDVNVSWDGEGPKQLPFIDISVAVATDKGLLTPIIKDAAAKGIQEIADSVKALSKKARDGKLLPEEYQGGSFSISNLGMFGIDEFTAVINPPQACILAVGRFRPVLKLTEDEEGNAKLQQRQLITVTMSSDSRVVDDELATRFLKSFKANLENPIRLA
UniProt O00291: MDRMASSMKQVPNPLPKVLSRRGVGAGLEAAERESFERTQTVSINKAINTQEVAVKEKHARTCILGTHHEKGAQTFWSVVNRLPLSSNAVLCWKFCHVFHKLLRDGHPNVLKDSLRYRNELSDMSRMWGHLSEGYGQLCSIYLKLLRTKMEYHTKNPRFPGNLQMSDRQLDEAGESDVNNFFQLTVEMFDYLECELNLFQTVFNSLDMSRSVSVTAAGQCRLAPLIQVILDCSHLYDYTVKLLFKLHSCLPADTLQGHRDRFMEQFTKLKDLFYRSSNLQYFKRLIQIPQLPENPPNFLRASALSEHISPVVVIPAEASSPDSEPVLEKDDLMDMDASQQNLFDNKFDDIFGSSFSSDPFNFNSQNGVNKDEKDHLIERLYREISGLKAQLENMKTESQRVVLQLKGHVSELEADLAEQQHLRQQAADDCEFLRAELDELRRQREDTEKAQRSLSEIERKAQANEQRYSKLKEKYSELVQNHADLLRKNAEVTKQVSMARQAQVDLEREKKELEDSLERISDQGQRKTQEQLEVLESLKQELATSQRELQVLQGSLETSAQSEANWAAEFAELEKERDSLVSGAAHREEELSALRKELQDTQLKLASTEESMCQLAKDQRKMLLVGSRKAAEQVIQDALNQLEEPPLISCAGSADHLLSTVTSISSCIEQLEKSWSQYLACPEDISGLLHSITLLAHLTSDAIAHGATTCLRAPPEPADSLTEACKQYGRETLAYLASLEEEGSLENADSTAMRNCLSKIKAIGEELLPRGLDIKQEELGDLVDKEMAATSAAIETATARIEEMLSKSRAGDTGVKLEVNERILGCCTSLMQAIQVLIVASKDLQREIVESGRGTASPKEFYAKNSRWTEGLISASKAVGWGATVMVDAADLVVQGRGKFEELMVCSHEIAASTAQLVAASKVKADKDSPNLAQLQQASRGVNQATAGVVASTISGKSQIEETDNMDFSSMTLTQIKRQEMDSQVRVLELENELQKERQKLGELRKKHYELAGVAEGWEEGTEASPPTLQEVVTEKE
UniProt O00458: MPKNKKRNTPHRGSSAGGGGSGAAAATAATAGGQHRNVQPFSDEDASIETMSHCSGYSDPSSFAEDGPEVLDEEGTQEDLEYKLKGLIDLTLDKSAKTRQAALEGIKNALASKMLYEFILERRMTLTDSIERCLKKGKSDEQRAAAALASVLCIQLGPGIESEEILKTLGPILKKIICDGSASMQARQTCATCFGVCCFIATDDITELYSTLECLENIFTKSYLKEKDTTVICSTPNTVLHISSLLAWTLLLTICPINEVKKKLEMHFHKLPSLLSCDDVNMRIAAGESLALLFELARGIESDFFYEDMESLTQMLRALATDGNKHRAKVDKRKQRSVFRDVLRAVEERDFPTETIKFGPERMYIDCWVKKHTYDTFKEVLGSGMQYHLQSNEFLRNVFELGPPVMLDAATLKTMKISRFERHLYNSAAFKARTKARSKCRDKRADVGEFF
UniProt O14975, whole entry, looked up: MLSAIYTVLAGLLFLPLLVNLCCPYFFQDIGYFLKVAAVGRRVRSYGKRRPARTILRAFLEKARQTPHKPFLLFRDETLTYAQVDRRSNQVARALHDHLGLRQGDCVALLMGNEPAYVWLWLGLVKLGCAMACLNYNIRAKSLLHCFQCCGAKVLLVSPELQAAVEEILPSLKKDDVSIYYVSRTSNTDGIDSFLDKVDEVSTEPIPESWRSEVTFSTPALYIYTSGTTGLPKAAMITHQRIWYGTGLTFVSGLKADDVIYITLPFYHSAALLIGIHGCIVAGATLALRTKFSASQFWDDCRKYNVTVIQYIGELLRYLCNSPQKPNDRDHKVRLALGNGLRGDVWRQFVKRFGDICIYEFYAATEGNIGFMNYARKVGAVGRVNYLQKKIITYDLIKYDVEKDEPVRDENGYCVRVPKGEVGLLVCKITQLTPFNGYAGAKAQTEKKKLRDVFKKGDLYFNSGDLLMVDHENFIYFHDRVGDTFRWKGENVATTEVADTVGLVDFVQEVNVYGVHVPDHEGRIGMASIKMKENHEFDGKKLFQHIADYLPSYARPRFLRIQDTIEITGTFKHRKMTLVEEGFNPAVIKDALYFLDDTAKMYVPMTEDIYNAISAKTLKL
UniProt O00635: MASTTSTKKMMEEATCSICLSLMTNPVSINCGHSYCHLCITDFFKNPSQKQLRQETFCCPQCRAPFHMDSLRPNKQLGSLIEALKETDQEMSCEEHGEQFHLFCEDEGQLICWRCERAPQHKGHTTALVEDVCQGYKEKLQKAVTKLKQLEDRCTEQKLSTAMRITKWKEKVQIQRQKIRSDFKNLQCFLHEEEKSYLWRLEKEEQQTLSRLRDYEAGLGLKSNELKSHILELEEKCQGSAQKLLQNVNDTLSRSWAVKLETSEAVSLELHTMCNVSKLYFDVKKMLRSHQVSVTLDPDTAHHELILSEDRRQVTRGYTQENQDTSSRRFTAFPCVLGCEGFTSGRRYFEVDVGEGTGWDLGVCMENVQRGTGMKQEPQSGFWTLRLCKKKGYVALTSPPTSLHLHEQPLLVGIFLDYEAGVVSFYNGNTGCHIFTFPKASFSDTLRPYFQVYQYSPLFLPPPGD
UniProt O15212, whole entry: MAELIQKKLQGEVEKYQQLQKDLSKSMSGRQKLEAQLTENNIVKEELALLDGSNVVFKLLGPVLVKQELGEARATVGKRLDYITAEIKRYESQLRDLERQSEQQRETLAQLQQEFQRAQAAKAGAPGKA
UniProt O14744, whole entry: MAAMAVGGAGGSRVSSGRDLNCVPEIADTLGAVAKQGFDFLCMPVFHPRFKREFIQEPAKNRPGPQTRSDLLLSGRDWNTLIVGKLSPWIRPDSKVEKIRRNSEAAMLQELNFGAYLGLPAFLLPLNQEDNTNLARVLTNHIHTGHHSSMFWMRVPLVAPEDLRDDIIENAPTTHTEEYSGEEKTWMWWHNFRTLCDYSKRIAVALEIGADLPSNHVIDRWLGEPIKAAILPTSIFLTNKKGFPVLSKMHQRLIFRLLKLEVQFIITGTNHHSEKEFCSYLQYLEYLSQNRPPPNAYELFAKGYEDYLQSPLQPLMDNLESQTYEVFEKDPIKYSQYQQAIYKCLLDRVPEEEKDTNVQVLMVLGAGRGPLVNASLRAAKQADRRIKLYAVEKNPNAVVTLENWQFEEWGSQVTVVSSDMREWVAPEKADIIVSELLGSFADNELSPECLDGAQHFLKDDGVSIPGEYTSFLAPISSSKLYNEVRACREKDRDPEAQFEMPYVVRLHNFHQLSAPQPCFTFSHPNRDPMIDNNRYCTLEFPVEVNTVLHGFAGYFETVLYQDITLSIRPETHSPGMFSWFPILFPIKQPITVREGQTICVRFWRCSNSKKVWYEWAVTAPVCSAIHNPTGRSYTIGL
UniProt O15085: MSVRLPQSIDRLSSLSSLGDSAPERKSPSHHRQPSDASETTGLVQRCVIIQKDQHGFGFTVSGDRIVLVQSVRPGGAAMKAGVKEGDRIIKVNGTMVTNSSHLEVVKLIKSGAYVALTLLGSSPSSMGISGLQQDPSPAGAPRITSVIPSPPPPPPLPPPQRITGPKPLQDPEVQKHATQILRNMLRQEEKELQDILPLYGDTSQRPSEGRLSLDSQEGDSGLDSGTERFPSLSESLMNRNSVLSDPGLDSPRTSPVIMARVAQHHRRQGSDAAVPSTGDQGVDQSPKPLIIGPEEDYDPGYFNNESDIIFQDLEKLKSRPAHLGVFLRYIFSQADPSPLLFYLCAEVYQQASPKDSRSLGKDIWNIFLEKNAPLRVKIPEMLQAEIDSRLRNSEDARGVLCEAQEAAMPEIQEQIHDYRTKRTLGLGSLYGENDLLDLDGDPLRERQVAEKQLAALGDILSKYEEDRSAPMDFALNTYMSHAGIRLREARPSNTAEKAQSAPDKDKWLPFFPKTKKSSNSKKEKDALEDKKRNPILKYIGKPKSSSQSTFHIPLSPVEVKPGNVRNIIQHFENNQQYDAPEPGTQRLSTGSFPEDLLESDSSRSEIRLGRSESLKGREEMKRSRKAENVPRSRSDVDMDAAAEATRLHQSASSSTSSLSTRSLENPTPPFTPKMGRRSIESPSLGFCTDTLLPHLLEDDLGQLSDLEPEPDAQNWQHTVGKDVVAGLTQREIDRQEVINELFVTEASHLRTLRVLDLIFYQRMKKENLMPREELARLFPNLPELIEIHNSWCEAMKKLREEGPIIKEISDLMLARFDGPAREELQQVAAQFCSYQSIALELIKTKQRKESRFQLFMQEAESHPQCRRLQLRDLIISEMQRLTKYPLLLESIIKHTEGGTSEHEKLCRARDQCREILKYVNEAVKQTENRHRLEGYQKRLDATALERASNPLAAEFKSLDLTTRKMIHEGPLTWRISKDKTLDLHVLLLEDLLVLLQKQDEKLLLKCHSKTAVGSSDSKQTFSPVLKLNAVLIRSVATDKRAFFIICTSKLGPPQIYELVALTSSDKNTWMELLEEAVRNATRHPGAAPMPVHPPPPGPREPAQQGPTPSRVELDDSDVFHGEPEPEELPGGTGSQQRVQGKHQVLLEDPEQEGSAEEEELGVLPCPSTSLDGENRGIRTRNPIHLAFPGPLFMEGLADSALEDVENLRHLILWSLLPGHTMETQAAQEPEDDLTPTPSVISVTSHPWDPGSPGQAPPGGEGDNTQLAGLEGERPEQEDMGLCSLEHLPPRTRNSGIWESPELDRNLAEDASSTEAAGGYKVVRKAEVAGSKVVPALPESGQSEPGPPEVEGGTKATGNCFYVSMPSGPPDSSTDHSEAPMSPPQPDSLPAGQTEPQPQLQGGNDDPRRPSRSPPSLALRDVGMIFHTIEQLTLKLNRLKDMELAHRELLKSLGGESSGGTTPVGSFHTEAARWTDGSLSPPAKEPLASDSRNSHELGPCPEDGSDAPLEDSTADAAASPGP

The other results are listed elsewhere or left out. Small differences around the control level are noise.

Compound in the assay: CN[C@@H]1C[C@H]2O[C@@](C)([C@@H]1OC)n1c3ccccc3c3c4c(c5c6ccccc6n2c5c31)C(=O)NC4 [staurosporine]
Kind of assay: log2 fold change of tryptic peptide abundance, ligand vs vehicle (limited proteolysis) (log2 ratio); higher = more trypsin-susceptible (destabilized). The conditions noted are these: ligand concentration: 20 uM; sample: K562 cleared lysate; digestion: 4 min, 22 C (HT-PELSA RT4min, Orbitrap Astral).
Regarding “RGL2 (peptide sequence: QYRPLDPLVPMPPPR, peptide start residue: 73) (UniProt O15211)”, the log2 fold change is 0.269.

With “CHD1 (peptide sequence: IGDHITECLK, peptide start residue: 1454) (UniProt O14646)”, the log2 fold change is -0.542.

“WIPF3 (peptide sequence: TPGPWLQAEAVGQSSDDIK, peptide start residue: 453) (UniProt A6NGB9)”: the log2 fold change was -0.305.

Consider “MYO1F (peptide sequence: GFGDLAVLK, peptide start residue: 897) (UniProt O00160)”, for which the log2 fold change was -0.499.

For the target “UniProt O00444 (peptide sequence: VIQDAEERPHSR, peptide start residue: 360)”, the log2 fold change was -0.107.

As for “HMGN4 (peptide sequence: VKDEPQR, peptide start residue: 17) (UniProt O00479)”, the log2 fold change turned out to be 0.0627.

On to “LSM1 (peptide sequence: SIDQFANLVLHQTVER, peptide start residue: 34) (UniProt O15116)”, for which the log2 fold change was 0.118.

Take “WDR46 (peptide sequence: ALLEKVPAELICLDPR, peptide start residue: 504) (UniProt O15213)”: the log2 fold change is -0.32.

With “UniProt O15042 (peptide sequence: KSNLELFK, peptide start residue: 201)”, the log2 fold change amounted to 0.533.

On to “NA (peptide sequence: IVELHQR, peptide start residue: 106) (UniProt B2RBV5)”, for which the log2 fold change amounted to 0.343.

In the case of “UniProt O14543 (peptide sequence: VTQLPGPIR, peptide start residue: 207)”, the log2 fold change came to 0.119.

Turning to “RFXAP (peptide sequence: QQQLLNQQVLEQR, peptide start residue: 251) (UniProt O00287)”, the log2 fold change came out at 0.168.

Consider “PDLIM1 (peptide sequence: TAASGVEANSRPLDHAQPPSSLVIDK, peptide start residue: 167) (UniProt O00151)”, for which the log2 fold change is -0.286.

Consider “USP27X (peptide sequence: QQDAHEFLIAALDVLHR, peptide start residue: 162) (UniProt A6NNY8)”, for which the log2 fold change is 0.4.

For “PDHX (peptide sequence: EHIPGTLR, peptide start residue: 174) (UniProt O00330)”, the log2 fold change is 0.167.

Regarding “FBLL1 (peptide sequence: IVALNAHTFLR, peptide start residue: 245) (UniProt A6NHQ2)”, the log2 fold change came out at 0.0273.

For the target “UniProt O00472 (peptide sequence: STPMNPANTIR, peptide start residue: 183)”, the log2 fold change stood at 0.266.

Consider “HIP1 (peptide sequence: ELEDSLER, peptide start residue: 512) (UniProt O00291)”, for which the log2 fold change was -0.22.

With “IFRD1 (peptide sequence: KHTYDTFK, peptide start residue: 371) (UniProt O00458)”, the log2 fold change was -0.356.

For “SLC27A2 (peptide sequence: GEVGLLVCK, peptide start residue: 420) (UniProt O14975)”, the log2 fold change amounted to 0.428.

Consider “TRIM38 (peptide sequence: DYEAGLGLK, peptide start residue: 214) (UniProt O00635)”, for which the log2 fold change is -0.265.

Regarding “PEX12 (peptide sequence: IVMGDTHK, peptide start residue: 92) (UniProt O00623)”, the log2 fold change was -0.18.

“AP3D1 (peptide sequence: MFDKNLQDLVR, peptide start residue: 13) (UniProt O14617)”: the log2 fold change was determined as 0.33.

Consider “PFDN6 (peptide sequence: KLQGEVEKYQQLQK, peptide start residue: 8) (UniProt O15212)”, for which the log2 fold change is -0.172.

Regarding “CROCC2 (peptide sequence: RWAQRQTR, peptide start residue: 210) (UniProt H7BZ55)”, the log2 fold change amounted to 0.0567.

As for “PRMT5 (peptide sequence: SDLLLSGR, peptide start residue: 69) (UniProt O14744)”, the log2 fold change is -0.469.

Consider “ITGB1BP1 (peptide sequence: SVDSSLGGLSR, peptide start residue: 25) (UniProt O14713)”, for which the log2 fold change is -0.0561.

Consider “TAF4 (peptide sequence: DLIFCLENERETSHSLLLYK, peptide start residue: 1062) (UniProt O00268)”, for which the log2 fold change stood at 0.631.

Turning to “ACACB (peptide sequence: TVVLDLLR, peptide start residue: 1128) (UniProt O00763)”, the log2 fold change was determined as 0.505.

As for “NVL (peptide sequence: KGNPDSVSNTPEMEQR, peptide start residue: 129) (UniProt O15381)”, the log2 fold change was -0.336.

For “OPLAH (peptide sequence: ITDPEILESR, peptide start residue: 1145) (UniProt O14841)”, the log2 fold change was -0.704.

As for “ARHGEF11 (peptide sequence: EISDLMLAR, peptide start residue: 808) (UniProt O15085)”, the log2 fold change came to 0.641.

With “DDX3X (peptide sequence: SFLLDLLNATGK, peptide start residue: 429) (UniProt O00571)”, the log2 fold change was determined as 0.423.

Regarding “MPHOSPH10 (peptide sequence: TAEEENPEHVEIQK, peptide start residue: 485) (UniProt O00566)”, the log2 fold change was -0.165.

As for “KPNA4 (peptide sequence: GRDLETMR, peptide start residue: 19) (UniProt O00629)”, the log2 fold change was 0.589.

Consider “SNAP23 (peptide sequence: AHQITDESLESTR, peptide start residue: 13) (UniProt O00161)”, for which the log2 fold change was -0.111.
